45 substances from patent publication US10081665B2, “Peptides and combination of peptides for use in immunotherapy against various tumors” (immatics biotechnologies GmbH, priority 2015, dated 2018) can be followed below.

For some of these results: Expression grades refer to the transcript from which the peptide derives; gene names, where given, were looked up from the sequence.

The subject of one series is cancer tissues compared to normal tissues. Kind of series: Identification and label-free relative LC-MS quantitation of HLA-presented tumor associated peptides (presentation profiles). The settings on record: FIG. 1A-D; more than 170 normal tissue samples and 376 cancer samples analysed. Set-up: species or system human.
As to “SEQ ID NO.: 1: peptide found in CENPE (gene looked up) (KLQEKIQEL; listed as Homo sapiens)”, the “cancer tissue samples where the peptide was found to be presented” value is 31 samples and the “normal tissue samples where the peptide was found to be presented” value is listed as 2 samples.

“SEQ ID NO.: 10: peptide found in KIF15 (gene looked up) (QLIEKNWLL; listed as Homo sapiens)”: the “cancer tissue samples where the peptide was found to be presented” value is recorded as 29 samples and the “normal tissue samples where the peptide was found to be presented” value is 1 samples.

As to “SEQ ID NO.: 11 (LLDPKTIFL; listed as Homo sapiens)”, the “cancer tissue samples where the peptide was found to be presented” value is reported as 13 samples.

Staying with this series, now noted: FIG. 1E-J.
For the substance “SEQ ID NO.: 2 (SVLEKEIYSI; listed as Homo sapiens)”, the “cell lines where the peptide was found to be presented” value was 4 cell lines.

Still in this series, the particulars now being: FIG. 1E-J, 7A-C; more than 320 normal tissue samples and 462 cancer samples analysed.
In the case of “SEQ ID NO.: 2 (SVLEKEIYSI; listed as Homo sapiens)”, the “cancer tissues where the peptide was found to be presented” value is given as 52 samples and the “normal tissues where the peptide was found to be presented” value amounted to 2 samples. Turning to “SEQ ID NO.: 40 (KIWEELSVLEV; listed as Homo sapiens)”, the “cancer tissues where the peptide was found to be presented” value came to 8 samples.

A further series relates to source genes of the peptides (mRNA). Nature of the series: Expression profiling of source genes by Affymetrix microarrays (target coverage). Set-up: species or system human. The settings on record: share of BPH/PCA samples with >1.5-fold over-expression vs highest-expressing relevant normal tissue; 20 prostate cancer samples.
With “1: peptide found in CENPE (gene looked up) (KLQEKIQEL; listed as Homo sapiens) [compound 1]”, the “Target coverage for source gene, BPH/PCA (%)” value (shortened to “Target coverage … BPH/PCA (%)”) is reported as “I (<19% over-expression = I)”. In the case of “10: peptide found in KIF15 (gene looked up) (QLIEKNWLL; listed as Homo sapiens) [compound 10]”, the “Target coverage … BPH/PCA (%)” value is recorded as “I (<19% over-expression = I)”. For the substance “33: peptide found in MUC16 (gene looked up) (TLDRNSLYV; listed as Homo sapiens) [compound 33]”, the “Target coverage … BPH/PCA (%)” value is listed as “II (20-49% = II)”. Still for that read-out and setting: with “35: peptide found in KIF11 (gene looked up) (VIIKGLEEI; listed as Homo sapiens) [compound 35]” the entry was “I (<19% over-expression = I)”; with “36: peptide found in KIF11 (gene looked up) (TVLQELINV; listed as Homo sapiens) [compound 36]”, “I (<19% over-expression = I)”; with “37: peptide found in KIF11 (gene looked up) (QIVELIEKI; listed as Homo sapiens) [compound 37]”, “I (<19% over-expression = I)”.

On to “39: peptide found in PRIM2 (gene looked up) (YLEDGFAYV; listed as Homo sapiens) [compound 39]”, for which the “Target coverage … BPH/PCA (%)” value is “IV (>70% = IV)”.

Regarding “41: peptide found in NCAPG (gene looked up) (IVTEIISEI; listed as Homo sapiens) [compound 41]”, the “Target coverage … BPH/PCA (%)” value is “I (<19% over-expression = I)”. Take “42: peptide found in NCAPG (gene looked up) (KQMSISTGL; listed as Homo sapiens) [compound 42]”: the “Target coverage … BPH/PCA (%)” value is reported as “I (<19% over-expression = I)”. On the same count and under the same terms, next, “48: peptide found in CHEK1 (gene looked up) (KISDFGLATV; listed as Homo sapiens) [compound 48]”: “I (<19% over-expression = I)”; “52: peptide found in BRIP1 (gene looked up) (TIGIPFPNV; listed as Homo sapiens) [compound 52]”: “I (<19% over-expression = I)”. On to “58: peptide found in BUB1 (gene looked up) (HLLGEGAFAQV; listed as Homo sapiens) [compound 58]”, for which the “Target coverage … BPH/PCA (%)” value is on record as “I (<19% over-expression = I)”. Still for that read-out and setting: next, “70: peptide found in KIF4A (gene looked up) (GLTEKTVLV; listed as Homo sapiens) [compound 70]”: “I (<19% over-expression = I)”; “79: peptide found in CCNB2 (gene looked up) (TVLEEIGNRV; listed as Homo sapiens) [compound 79]”: “I (<19% over-expression = I)”. As to “90: peptide found in HTR3A (gene looked up) (AILNVDEKNQV; listed as Homo sapiens) [compound 90]”, the “Target coverage … BPH/PCA (%)” value was “I (<19% over-expression = I)”.

Consider “93: peptide found in AURKA (gene looked up) (RLYGYFHDA; listed as Homo sapiens) [compound 93]”, for which the “Target coverage … BPH/PCA (%)” value is recorded as “I (<19% over-expression = I)”. As to “94: peptide found in ACKR2 (gene looked up) (YLDEVAFML; listed as Homo sapiens) [compound 94]”, the “Target coverage … BPH/PCA (%)” value is reported as “I (<19% over-expression = I)”. With “104: peptide found in KLK3 (gene looked up) (DLPTQEPALGTT; listed as Homo sapiens) [compound 104]”, the “Target coverage … BPH/PCA (%)” value is recorded as “IV (>70% = IV)”.

Consider “111: peptide found in HMMR (gene looked up) (AQLEGKLVSI; listed as Homo sapiens) [compound 111]”, for which the “Target coverage … BPH/PCA (%)” value was “I (<19% over-expression = I)”. On the same count and under the same terms, with “112: peptide found in KIF4A (gene looked up) (ILAQDVAQL; listed as Homo sapiens) [compound 112]” the entry was “I (<19% over-expression = I)”; with “114: peptide found in NCAPH (gene looked up) (LLFPSDVQTL; listed as Homo sapiens) [compound 114]”, “I (<19% over-expression = I)”; with “120: peptide found in RRM2 (gene looked up) (LQLSPLKGLSL; listed as Homo sapiens) [compound 120]”, “I (<19% over-expression = I)”. On to “121: peptide found in TRIP13 (gene looked up) (ALYVQAPTV; listed as Homo sapiens) [compound 121]”, for which the “Target coverage … BPH/PCA (%)” value is listed as “I (<19% over-expression = I)”.

Take “122: peptide found in TRIP13 (gene looked up) (SIIDTELKV; listed as Homo sapiens) [compound 122]”: the “Target coverage … BPH/PCA (%)” value was “I (<19% over-expression = I)”. Regarding “234: peptide found in NCAPG (gene looked up) (VLLNEILEQV; listed as Homo sapiens) [compound 234]”, the “Target coverage … BPH/PCA (%)” value is recorded as “I (<19% over-expression = I)”.

Regarding “239: peptide found in KIF11 (gene looked up) (VIIKGLEEITV; listed as Homo sapiens) [compound 239]”, the “Target coverage … BPH/PCA (%)” value was “I (<19% over-expression = I)”.

For the substance “240: peptide found in KIF11 (gene looked up) (SVQENIQQK; listed as Homo sapiens) [compound 240]”, the “Target coverage … BPH/PCA (%)” value is listed as “I (<19% over-expression = I)”. For the substance “242: peptide found in CENPE (gene looked up) (KLQEEIPVL; listed as Homo sapiens) [compound 242]”, the “Target coverage … BPH/PCA (%)” value is “I (<19% over-expression = I)”. The same measure, in the same setting: next, “247: peptide found in CDK1 (gene looked up) (NLLIDDKGTIKL; listed as Homo sapiens) [compound 247]”: “I (<19% over-expression = I)”; “248: peptide found in CDK1 (gene looked up) (VLMQDSRLYL; listed as Homo sapiens) [compound 248]”: “I (<19% over-expression = I)”; “249: peptide found in CDK1 (gene looked up) (YLYQILQGI; listed as Homo sapiens) [compound 249]”: “I (<19% over-expression = I)”. Same read-out and setting: next, “250: peptide found in CDK1 (gene looked up) (LMQDSRLYL; listed as Homo sapiens) [compound 250]”: “I (<19% over-expression = I)”; “252: peptide found in KIF4A (gene looked up) (SLMEKNQSL; listed as Homo sapiens) [compound 252]”: “I (<19% over-expression = I)”; “267: peptide found in TOP2A (gene looked up) (YLLDMPLWYL; listed as Homo sapiens) [compound 267]”: “I (<19% over-expression = I)”. For “268: peptide found in TOP2A (gene looked up) (SLDKDIVAL; listed as Homo sapiens) [compound 268]”, the “Target coverage … BPH/PCA (%)” value is on record as “I (<19% over-expression = I)”. Still for that read-out and setting: next, “270: peptide found in FANCI (gene looked up) (TLLTFFHEL; listed as Homo sapiens) [compound 270]”: “I (<19% over-expression = I)”.

For the substance “271: peptide found in FANCI (gene looked up) (VLIEYNFSI; listed as Homo sapiens) [compound 271]”, the “Target coverage … BPH/PCA (%)” value is on record as “I (<19% over-expression = I)”. Same read-out and setting: next, “277: peptide found in HMMR (gene looked up) (KLQEELNKV; listed as Homo sapiens) [compound 277]”: “I (<19% over-expression = I)”; “285: peptide found in NCAPG2 (gene looked up) (MLLDTVQKV; listed as Homo sapiens) [compound 285]”: “I (<19% over-expression = I)”; “287: peptide found in IGF2BP3 (gene looked up) (KIQEILTQV; listed as Homo sapiens) [compound 287]”: “I (<19% over-expression = I)”.
